Source: PubChem BioAssay AID248 (DTP/NCI, 2004)
The list does not hold the whole screen: it is rich in T/C values a quarter to a half above the control, in often repeated tests (any T/C) and in doses without a T/C. Other doses and runs of a compound stand elsewhere. T/C is the treated group as % of the vehicle group. Some entries give survivors of the animals treated and no T/C: the source holds a T/C of zero for them, seemingly a mark for toxic or unscored doses. Some doses without a T/C left all or most animals alive at the check, yet need not have been tolerated: the source hardly ever lists a survival T/C far under the control, and the zero likely stands for such cases as well. Counts of survivors are from the toxicity check (mostly the fifth day) where no day follows; animals may have died later. Schedules are NCI's codes, read here as Q, the interval in days (D) or hours (H), X, the number of doses. Some schedule codes hold Z or #, which are not explained here. For survival time, this PubChem deposit counts one and a half times the control or more as active, and values a quarter to a half above the control carry no call in these data; other NCI protocols may use other cut-offs. Additions like (4×) stand for listed records that agree. Some doses were run more than once; their values stand side by side, smallest first. Some T/C values carry the count of animals alive at the toxicity check (mostly the fifth day); without a count, all were alive then.

Test system: L1210 leukemia ip in BDF1 mice, survival T/C
Test: NCI In Vivo Anticancer Drug Screen. Data for tumor model L1210 Leukemia (intraperitoneal) in B6D2F1 (BDF1) mice
Details: T/C endpoint: mean survival time, higher T/C = longer survival
[1] = dose: 0.9 mg/kg/injection, schedule: Q03HX008 (ip), vehicle: carboxymethylcellulose (CMC)
[2] = dose: 2.0 mg/kg/injection, schedule: Q03HX024 (ip), vehicle: carboxymethylcellulose (CMC)
[3] = dose: 8.0 mg/kg/injection, schedule: Q03HX024 (ip), vehicle: carboxymethylcellulose (CMC)

Compound: N=C(N)SCc1c2ccccc2c(CSC(=N)N)c2ccccc12
- T/C (dose: 0.1 mg/kg/injection, schedule: Q01DX Z (ip), vehicle: carboxymethylcellulose (CMC)): 128 % of control
- T/C (dose: 0.4 mg/kg/injection, schedule: Q01DX Z (ip), vehicle: carboxymethylcellulose (CMC)): 126 % of control
- T/C (dose: 0.45 mg/kg/injection, schedule: Q01DX Z (ip), vehicle: saline): 135 % of control
- survivor count (dose: 0.5 mg/kg/injection, schedule: Q03HX024 (ip), vehicle: carboxymethylcellulose (CMC)): 2 of 10
- T/C (dose: 0.78 mg/kg/injection, schedule: Q07DX003 (ip), vehicle: saline): 130 % of control
- T/C (dose: 0.8 mg/kg/injection, schedule: Q01DX Z (ip), vehicle: carboxymethylcellulose (CMC)): 125 and 126 % of control
- T/C [1]: 138 % of control
- survivor count [1]: 4 of 10
- T/C (dose: 0.9 mg/kg/injection, schedule: Q03HX008 (ip), vehicle: other): 134 % of control (2×)
- T/C (dose: 1.0 mg/kg/injection, schedule: Q01DX Z (ip), vehicle: saline): 141 % of control
- T/C (dose: 1.2 mg/kg/injection, schedule: Q03DX004 (ip), vehicle: saline): 136 % of control
- T/C (dose: 1.25 mg/kg/injection, schedule: Q01DX Z (ip), vehicle: carboxymethylcellulose (CMC)): 125 % of control
- T/C (dose: 1.25 mg/kg/injection, schedule: Q#A X Z (ip), vehicle: carboxymethylcellulose (CMC)): 128 % of control
- T/C (dose: 1.5 mg/kg/injection, schedule: Q01DX Z (ip), vehicle: carboxymethylcellulose (CMC)): 125 and 134 % of control
- T/C (dose: 1.56 mg/kg/injection, schedule: Q07DX003 (ip), vehicle: saline): 137 % of control
- T/C (dose: 1.8 mg/kg/injection, schedule: Q01DX Z (ip), vehicle: saline): 144 % of control
- T/C [2]: 126 % of control
- survivor count [2]: 6 of 10
- T/C (dose: 2.0 mg/kg/injection, schedule: Q03HX024 (ip), vehicle: other): 128 and 131 % of control
- survivor count (dose: 2.0 mg/kg/injection, schedule: Q## X008 (ip), vehicle: carboxymethylcellulose (CMC)): 2 of 10
- T/C (dose: 2.3 mg/kg/injection, schedule: Q01DX Z (ip), vehicle: saline): 126 and 130 % of control
- T/C (dose: 2.4 mg/kg/injection, schedule: Q03DX004 (ip), vehicle: saline): 133 % of control
- T/C (dose: 2.5 mg/kg/injection, schedule: Q01DX001 (ip), vehicle: carboxymethylcellulose (CMC)): 139 % of control
- T/C (dose: 2.5 mg/kg/injection, schedule: Q01DX Z (im), vehicle: carboxymethylcellulose (CMC)): 141 % of control
- T/C (dose: 2.5 mg/kg/injection, schedule: Q01DX Z (ip), vehicle: carboxymethylcellulose (CMC)): 125 % of control
- T/C (dose: 2.5 mg/kg/injection, schedule: Q01DX Z (sc), vehicle: carboxymethylcellulose (CMC)): 129 % of control
- T/C (dose: 2.5 mg/kg/injection, schedule: Q#A X Z (ip), vehicle: carboxymethylcellulose (CMC)): 133 % of control (2×)
- survivor count (dose: 2.7 mg/kg/injection, schedule: Q03HX008 (ip), vehicle: carboxymethylcellulose (CMC)): 5 of 10
- T/C (dose: 2.7 mg/kg/injection, schedule: Q03HX008 (ip), vehicle: other): 132 % of control
- T/C (dose: 3.0 mg/kg/injection, schedule: Q01DX Z (ip), vehicle: carboxymethylcellulose (CMC)): 140 % of control
- T/C (dose: 3.1 mg/kg/injection, schedule: Q03HX024 (ip), vehicle: carboxymethylcellulose (CMC)): 134 % of control
- T/C (dose: 3.1 mg/kg/injection, schedule: Q03HX040 (ip), vehicle: carboxymethylcellulose (CMC)): 129 % of control [7 of 8 alive]
- T/C (dose: 3.13 mg/kg/injection, schedule: Q07DX003 (ip), vehicle: saline): 131 % of control
- T/C (dose: 3.5 mg/kg/injection, schedule: Q01DX Z (ip), vehicle: saline): 145 % of control
- T/C (dose: 4.0 mg/kg/injection, schedule: Q## X003 (ip), vehicle: carboxymethylcellulose (CMC)): 132 % of control
- T/C (dose: 4.3 mg/kg/injection, schedule: Q01DX001 (ip), vehicle: carboxymethylcellulose (CMC)): 138 % of control
- T/C (dose: 4.7 mg/kg/injection, schedule: Q03DX004 (ip), vehicle: saline): 127 % of control
- T/C (dose: 4.7 mg/kg/injection, schedule: Q03DX Z (ip), vehicle: saline): 141 % of control
- T/C (dose: 5.0 mg/kg/injection, schedule: Q01DX Z (im), vehicle: carboxymethylcellulose (CMC)): 135 % of control
- T/C (dose: 5.0 mg/kg/injection, schedule: Q01DX Z (ip), vehicle: carboxymethylcellulose (CMC)): 131 % of control
- T/C (dose: 5.0 mg/kg/injection, schedule: Q01DX Z (sc), vehicle: carboxymethylcellulose (CMC)): 140 % of control
- T/C (dose: 5.0 mg/kg/injection, schedule: Q#A X Z (ip), vehicle: carboxymethylcellulose (CMC)): 128 and 146 % of control
- T/C (dose: 5.3 mg/kg/injection, schedule: Q01DX Z (ip), vehicle: saline): 149 % of control
- T/C (dose: 6.0 mg/kg/injection, schedule: Q01DX009 (ip), vehicle: saline): 127 and 135 % of control
- T/C (dose: 6.0 mg/kg/injection, schedule: Q06HX068 (ip), vehicle: carboxymethylcellulose (CMC)): 131 % of control
- T/C (dose: 6.2 mg/kg/injection, schedule: Q03HX024 (ip), vehicle: carboxymethylcellulose (CMC)): 130 % of control
- T/C (dose: 6.2 mg/kg/injection, schedule: Q03HX040 (ip), vehicle: carboxymethylcellulose (CMC)): 144 % of control
- T/C (dose: 6.25 mg/kg/injection, schedule: Q07DX Z (ip), vehicle: saline): 138 % of control
- T/C (dose: 7.0 mg/kg/injection, schedule: Q03DX006 (ip), vehicle: carboxymethylcellulose (CMC)): 130 % of control
- survivor count (dose: 7.0 mg/kg/injection, schedule: Q## X008 (ip), vehicle: carboxymethylcellulose (CMC)): 1 of 10
- T/C (dose: 8.0 mg/kg/injection, schedule: Q01DX Z (ip), vehicle: saline): 137 % of control
- T/C [3]: 133 % of control
- survivor count [3]: 3 of 10
- T/C (dose: 8.0 mg/kg/injection, schedule: Q08DX002 (ip), vehicle: clinical formulation): 136 and 140 % of control
- survivor count (dose: 8.1 mg/kg/injection, schedule: Q03HX008 (ip), vehicle: carboxymethylcellulose (CMC)): 6 of 10
- T/C (dose: 8.1 mg/kg/injection, schedule: Q03HX008 (ip), vehicle: other): 139 % of control
- T/C (dose: 8.5 mg/kg/injection, schedule: Q01DX001 (ip), vehicle: carboxymethylcellulose (CMC)): 141 % of control
- T/C (dose: 8.5 mg/kg/injection, schedule: Q07DX003 (ip), vehicle: carboxymethylcellulose (CMC)): 134 % of control
- T/C (dose: 9.4 mg/kg/injection, schedule: Q03DX Z (ip), vehicle: saline): 132 % of control
- T/C (dose: 10.0 mg/kg/injection, schedule: Q01DX Z (im), vehicle: carboxymethylcellulose (CMC)): 132 % of control
- T/C (dose: 10.0 mg/kg/injection, schedule: Q#A X Z (ip), vehicle: carboxymethylcellulose (CMC)): 135 % of control
- T/C (dose: 12.0 mg/kg/injection, schedule: Q08DX002 (ip), vehicle: clinical formulation): 142 % of control
- T/C (dose: 12.0 mg/kg/injection, schedule: Q08DX002 (ip), vehicle: saline): 136 % of control
- T/C (dose: 12.5 mg/kg/injection, schedule: Q01DX001 (ip), vehicle: carboxymethylcellulose (CMC)): 129 % of control
- T/C (dose: 12.5 mg/kg/injection, schedule: Q01DX Z (ip), vehicle: carboxymethylcellulose (CMC)): 132 % of control [5 of 6 alive]
- T/C (dose: 12.5 mg/kg/injection, schedule: Q03HX008 (ip), vehicle: saline): 130 % of control
- T/C (dose: 12.5 mg/kg/injection, schedule: Q03HX024 (ip), vehicle: carboxymethylcellulose (CMC)): 136 % of control
- T/C (dose: 12.5 mg/kg/injection, schedule: Q03HX040 (ip), vehicle: carboxymethylcellulose (CMC)): 136 % of control
- T/C (dose: 15.0 mg/kg/injection, schedule: Q03DX006 (ip), vehicle: carboxymethylcellulose (CMC)): 127 and 141 % of control
- T/C (dose: 16.0 mg/kg/injection, schedule: Q03HX024 (ip), vehicle: carboxymethylcellulose (CMC)): 131 % of control
- T/C (dose: 16.0 mg/kg/injection, schedule: Q03HX024 (ip), vehicle: other): 145 % of control
- T/C (dose: 16.0 mg/kg/injection, schedule: Q## X003 (ip), vehicle: carboxymethylcellulose (CMC)): 146 % of control
- T/C (dose: 17.0 mg/kg/injection, schedule: Q01DX001 (ip), vehicle: carboxymethylcellulose (CMC)): 133 % of control
- T/C (dose: 17.0 mg/kg/injection, schedule: Q07DX003 (ip), vehicle: carboxymethylcellulose (CMC)): 128 and 132 % of control
- T/C (dose: 18.0 mg/kg/injection, schedule: Q08DX002 (ip), vehicle: clinical formulation): 133 % of control
- T/C (dose: 18.0 mg/kg/injection, schedule: Q08DX002 (ip), vehicle: saline): 128 and 137 % of control
- T/C (dose: 18.8 mg/kg/injection, schedule: Q03DX Z (ip), vehicle: saline): 143 % of control
- T/C (dose: 20.0 mg/kg/injection, schedule: Q01DX006 (iv), vehicle: saline): 125 % of control
- T/C (dose: 20.0 mg/kg/injection, schedule: Q01DX Z (im), vehicle: carboxymethylcellulose (CMC)): 138 % of control
- survivor count (dose: 22.0 mg/kg/injection, schedule: Q## X008 (ip), vehicle: carboxymethylcellulose (CMC)): 0 of 10
- T/C (dose: 25.0 mg/kg/injection, schedule: Q01DX005 (ip), vehicle: carboxymethylcellulose (CMC)): 126 % of control
- T/C (dose: 25.0 mg/kg/injection, schedule: Q01DX009 (ip), vehicle: carboxymethylcellulose (CMC)): 147 % of control
- survivor count (dose: 25.0 mg/kg/injection, schedule: Q01DX009 (ip), vehicle: clinical formulation): 4 of 6
- T/C (dose: 25.0 mg/kg/injection, schedule: Q01DX Z (ip), vehicle: carboxymethylcellulose (CMC)): 129 % of control
- T/C (dose: 25.0 mg/kg/injection, schedule: Q03HX008 (ip), vehicle: carboxymethylcellulose (CMC)): 139 % of control
- T/C (dose: 25.0 mg/kg/injection, schedule: Q03HX024 (ip), vehicle: carboxymethylcellulose (CMC)): 147 % of control
- T/C (dose: 25.0 mg/kg/injection, schedule: Q07DX Z (ip), vehicle: saline): 144 % of control
- T/C (dose: 26.0 mg/kg/injection, schedule: Q08DX002 (ip), vehicle: clinical formulation): 149 % of control
- T/C (dose: 26.0 mg/kg/injection, schedule: Q08DX002 (ip), vehicle: saline): 147 and 148 % of control
- T/C (dose: 27.0 mg/kg/injection, schedule: Q01DX Z (ip), vehicle: saline): 127 % of control
- T/C (dose: 30.0 mg/kg/injection, schedule: Q03DX006 (ip), vehicle: carboxymethylcellulose (CMC)): 138 % of control (2×)
- survivor count (dose: 32.0 mg/kg/injection, schedule: Q03HX024 (ip), vehicle: carboxymethylcellulose (CMC)): 4 of 10
- survivor count (dose: 32.0 mg/kg/injection, schedule: Q03HX024 (ip), vehicle: other): 10 of 10
- T/C (dose: 35.0 mg/kg/injection, schedule: Q01DX001 (ip), vehicle: carboxymethylcellulose (CMC)): 138 % of control
- T/C (dose: 35.0 mg/kg/injection, schedule: Q07DX003 (ip), vehicle: carboxymethylcellulose (CMC)): 133 and 134 % of control
- T/C (dose: 37.5 mg/kg/injection, schedule: Q03DX Z (ip), vehicle: saline): 139 and 143 % of control
